## Library screen at single concentrations

A: 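Whole-parasite assay of Trypanosoma brucei over 72 hours; the read-out is not stated. Compounds at 30 µM. Direction is inferred from retests: higher values go with stronger inhibition. Values scatter widely below zero; nearly all retest evidence comes from the higher of the two concentrations used. About 64,000 compounds were tested under these conditions; 1.5% (about 940) showed 50% or more at least once.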
B: 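Assay of Toxoplasma gondii numbers, read through their beta-galactosidase reporter with a colour substrate. Concentration: 10 µM. The record gives no direction; the compounds picked for IC50 retests had high values, so higher reads as fewer parasites. Size under these conditions: about 67,000 compounds, about 260 of them at 50% or above in at least one test.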
C: 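Cell assay of Leishmania donovani living inside macrophages; the read-out is not stated. Compounds at 30 µM. Direction is inferred from retests: higher values go with stronger inhibition. Size under these conditions: about 69,000 compounds, about 1,000 of them at 50% or above in at least one test.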

Values are the deposited “Percent Effect”, in %.
The record does not define 0% and 100%; most values in the screen are far below 50% and negative numbers occur (in some assays of this library far below -100).
Compounds were drawn at random from those tested, without regard to their results.
Two or more numbers in one place are separate tests of the same structure; such repeats can differ widely.
A dash means the value is not listed here; it may have been measured.

| # | SMILES | A | B | C |
|---|---|---|---|---|
| 1 | `Cc1cc(C)c(Cn2cncn2)cc1CN1CCC(CN)C1` (stereo not shown) | 28.25% | 15.69% | 13.59% |
| 2 | `CCCOc1cc(C)ccc1NC(=O)N(C)Cc1cnn(C)c1` | -32.24% | 7.046% | 6.96% |
| 3 | `O=C(NCc1ccc(OCC2CC2)nc1)Nc1c(F)cccc1F` | 3.295% | 2.581% | 13.08% |
| 4 | `CNc1nc(CNC(=O)Nc2ccccc2OC(C)C)cs1` | -10.52% | 0.8401% | 11.78% |
| 5 | `Cc1c(C(=O)NCC(C)(C)S(C)(=O)=O)cccc1-c1ccccn1` | -33.39% | -20.89% | -40.81% |
| 6 | `Cn1ncc2c(NCCCOc3cccnc3)nc(C3CCCC3)nc21` | -34.87% | 17.36% | 7.938% |
| 7 | `[H][C@@]12CCN(S(=O)(=O)CCC)[C@@]1([H])CC(=O)N2Cc1csc(C)n1` | -34.16% | -12.36% | 28.33% |
| 8 | `CCc1nccn1C1CCCN(C(=O)CCOCC(F)(F)F)C1` (stereo not shown) | - | 3.621% | 9.442% |
| 9 | `Cc1cc(NC(=O)NCc2cccnc2OC2CCCC2)n(C)n1` | -18.79% | -3.087% | 11.33% |
| 10 | `O=C(C1CCCO1)N1CCC2(CC1)CNCCO2` (stereo not shown) | -13.42% | -0.7979% | 3.265% |
| 11 | `CCCC(=O)NC1CCCN(c2cncc(Br)c2)C1` (stereo not shown) | -37.27% | -10.37% | 29.16% |
| 12 | `CCc1cc(NCCC(F)(F)F)nc(N2CCOCC2)n1` | -17.31% | 17.24% | 3.852% |
| 13 | `Cc1n[nH]c(C2CN(Cc3nnc(C4CCC4)o3)CCO2)n1` (stereo not shown) | - | 8.141% | -1.74% |
| 14 | `Cc1cnn(CC2CCCN2C(=O)c2csc(C3CC3)n2)c1` (stereo not shown) | - | 28.38% | 10.39% |
| 15 | `NC(=O)C1CCCN1CCCc1ccc(C(F)(F)F)cc1` (stereo not shown) | -41.92% | 6.546% | 10.48% |
| 16 | `Cc1cnc(N2CC3(CCN(C(=O)c4cccnc4)C3)C2)nc1.O=C(O)C(F)(F)F` | -12.03% | 12.68% | 21.49% |
| 17 | `O=C(O)C(F)(F)F.O=C(O)C(F)(F)F.O=C(O)C(F)(F)F.c1ccc(CO[C@H]2CO[C@@]3(CCCN(Cc4cccnc4)C3)C2)nc1` | -28.27% | -3.26% | 28.3% |
| 18 | `CS(=O)(=O)c1ccc(NCC2CCCO2)c(S(C)(=O)=O)c1` (stereo not shown) | -14.8% | 13.64% | 29.31% |
| 19 | `CC(C)c1nc2c(n1C)CCN(Cc1nc(-c3ccco3)no1)C2` | -8.989% | 18.54% | 17.42% |
| 20 | `CS(=O)(=O)c1ccc(O[C@H]2COCCN(C(=O)c3ccno3)C2)cc1` | -7.826% | -0.1806% | -4.436% |
| 21 | `CCc1cc(NC2CCN(CC(N)=O)CC2)nc(N2CCCCC2)n1` | -3.579% | 22.76% | 55.44% |
| 22 | `CCOc1ccccc1C(CC(=O)Nc1ncc(C)s1)NC(C)=O` (stereo not shown) | -19.66% | -39.28% | 0.2442% |
| 23 | `O=C(O)C(F)(F)F.[H][C@]12CN(c3ccccn3)C[C@@]1(C(=O)N(C)C)CCCN(S(=O)(=O)CC)C2` | 35.1% | 4.594% | -7.165% |
| 24 | `O=C(O)C(F)(F)F.O=C(O)C(F)(F)F.O=C(O)C(F)(F)F.[H][C@@]12CCN(Cc3ccccn3)[C@@]1([H])CC(=O)N2CCN1CCOCC1` | -11.75% | -3.143% | -17.32% |
| 25 | `CN(C)c1cc(C(=O)N2CCN(c3cc(C#N)ccn3)CC2)ccn1` | 5.309% | 1.33% | 22.88% |
| 26 | `COc1cccc(OC)c1C(=O)N1CCN(c2ccccc2F)CC1` | -49.4% | 2.384% | 6.729% |
| 27 | `CN(Cc1noc2c1CCCC2)C(=O)Cn1cnc2ccccc2c1=O` | - | 6.861% | 20.4% |
| 28 | `CCCN1Cc2ccccc2CC1C(=O)NC` (stereo not shown) | -1.641% | -11.39% | -6.667% |
| 29 | `O=C1N(c2ccccc2)Cc2nc(=O)[nH]n21` | 10% | 5.619% | 1.95% |
| 30 | `O=C(O)C(F)(F)F.[H][C@@]12CCCO[C@]1([H])[C@@H](OCC(=O)N(C)C)CN2Cc1cccc(F)c1` | -41.18% | 9.102% | -11.93% |
| 31 | `CCc1nnc2n1CCN(C(=O)c1ccc3nc(C)c(C)nc3c1)C2` | -3.495% | -1.803% | 0.4378% |
| 32 | `O=C(c1cccnc1)N1CCCC1c1cc[nH]n1` (stereo not shown) | 8.09% | 6.891% | 12.09% |
| 33 | `CCc1nnc2n1CCN(C(=O)c1cn(-c3ccccc3)nn1)C2` | -11.75% | -6.818% | 5.363% |
| 34 | `Cl.Cl.c1ccc2c(c1)C(NC1CCCC1)CC21CCNCC1` (stereo not shown) | 4.082% | 14.17% | 32.48% |
| 35 | `CC(C)(C)n1ncc2c(=O)[nH]c(N3CCN(CC(F)F)CC3)nc21` | -10.41% | 2.887% | 30.52% |
| 36 | `CN(C)C(=O)CNC(=O)Nc1cccc(Cl)c1SC(F)F` | -28.81% | 3.489% | -8.586% |
| 37 | `Cc1ccccc1CC(=O)N1CCN(C2CCOC2=O)CC1` (stereo not shown) | 18.68% | 11.66% | -4.493% |
| 38 | `COc1ccc(C2(NCc3c(C)nc4c(C)cccn34)CCCC2)cc1.O=C(O)CC(O)(CC(=O)O)C(=O)O` | -8.607% | 14.76% | 29.77% |
| 39 | `COc1ccc([C@@H]2CN(Cc3ccncc3)C[C@H]2N(C)C)cc1` | -13.92% | -0.9091% | -9.003% |
| 40 | `CC(CN1CCOCC1)NC(=O)NCCc1ccc(Cl)s1` (stereo not shown) | 43.18% | 5% | 13.93% |
| 41 | `COCCN1C2(CCN(Cc3nccs3)C2)c2ccccc2S1(=O)=O.O=C(O)C(F)(F)F` (stereo not shown) | -203.3% | -1.285% | 31.39% |
| 42 | `Cc1cc(C)c(-n2cc(CCO)cn2)cc1C` | 10.31% | 2.588% | 32.17% |
| 43 | `CCCc1n[nH]c(C2CN(C(=O)c3ccc(C)[nH]c3=O)CCO2)n1` (stereo not shown) | -14.61% | 20.9% | -4.244% |
| 44 | `OC1(CNCCc2nc(Cc3ccccc3)no2)CNCCOC1` (stereo not shown) | 8.865% | 8.039% | 21.48% |
| 45 | `O=C1COc2cc(C(=O)NS(=O)(=O)c3ccc(F)c(F)c3)ccc2N1` | -13.42% | -48.74% | -41.09% |
| 46 | `Cn1cc(CN2CCC(F)(F)C3(CCN(c4ncc(F)cn4)C3)C2)cn1.O=C(O)C(F)(F)F` (stereo not shown) | -7.399% | 0.7422% | -15.44% |
| 47 | `Cc1cc(CNC(=O)C2CCCCN2C(=O)OC(C)(C)C)no1` (stereo not shown) | -15.04% | 0.2658% | 26.88% |
| 48 | `O=C(NC1CCS(=O)(=O)c2ccccc21)c1sccc1C1CC1` (stereo not shown) | -22.51% | -11.97% | -16.8% |
| 49 | `CCOc1ncccc1CNC(=O)NC1CCOc2ccccc21` (stereo not shown) | -12.87% | -5.645% | 24.06% |
| 50 | `CCCS(=O)(=O)NC(=O)c1ccc(CC)o1` | -42.84% | 5.513% | -1.874% |
| 51 | `Cc1nc(CNCc2ccc(N3CCC(CO)CC3)nc2)cs1` | 2.591% | -8.732% | -19.06% |
| 52 | `CN(Cc1cscn1)C(=O)C(c1ccccc1)N1CCSCC1` (stereo not shown) | 10.7% | -0.6977% | -0.9462% |
| 53 | `CC1(C)CC(C(=O)N2CCC3(CCC(=O)N(C4CC4)C3)CC2)CCO1` (stereo not shown) | -40.54% | 3.581% | 9.227% |
| 54 | `[H][C@]12CC[C@]([H])(CN(C(=O)CCc3n[nH]c(C)c3C)C1)N(CC=C(C)C)C2=O` | -42.69% | 7.872% | -1.622% & -20.56% |
| 55 | `Cc1ncsc1C(=O)NCCNc1ncccn1` | -28.2% | 15.43% | -13.48% |
| 56 | `[H][C@]12CCN(C(=O)c3ccc4[nH]ccc4c3)C[C@@]1([H])OCCN(CCOC)C2` | -41.96% | 6.995% | 10.96% |
| 57 | `O=C(O)c1ccccc1C1CCN(C2Cc3ccccc3C2)C1` (stereo not shown) | -19.48% | -2.791% | 15.52% |
| 58 | `Nc1cc2c(nn1)CCN(C(=O)c1ccccc1Oc1cccnc1)C2` | -19.04% | 0.1604% | -1.357% |
| 59 | `CC(C)(C)c1noc(CN2CCN(C(=O)c3ccco3)CC2)n1` | 4.562% | 11.77% | 14.39% |
| 60 | `Cc1ncc(-c2ccnc(SCCN(C)C)n2)c(-c2ccco2)n1` | -25.35% | 11.73% | 32.12% & 5.488% |
| 61 | `CC(C)Oc1ccccc1C(=O)NC1CC(=O)N(CC(F)(F)F)C1` (stereo not shown) | -16.48% | 10.72% | 16.19% |
| 62 | `COC(=O)C(C)N1CCCc2cc(OC)ccc2C1` (stereo not shown) | -24.03% | -47.15% | 8.236% |
| 63 | `Cc1ccc(Br)c(S(=O)(=O)NCc2cnn(C)c2)c1` | -30.22% | -6.542% | -16.76% |
| 64 | `COc1ncc(C)cc1NC(=O)CCc1ccccn1` | -29.8% | 2.537% | -0.02347% |
| 65 | `CC(C)(O)CNC(=O)c1sccc1Br` | -53.03% | 2.256% | 19.47% |
| 66 | `[H][C@]12C[C@H](C(=O)NC)N(C(C)C)[C@@]1([H])CN(c1cc(OC)ncn1)C2` | -72.56% | -5.669% | -5.681% & -2.398% |
| 67 | `CN1CC[C@]2(CN(Cc3nccs3)C[C@H]2c2ccccc2)C1=O.O=C(O)C(F)(F)F` | -7.074% | 1.82% | 20.47% |

The first 6 entries again:

SMILES	A	B	C
Cc1cc(C)c(Cn2cncn2)cc1CN1CCC(CN)C1 (stereo not shown)	28.25%	15.69%	13.59%
CCCOc1cc(C)ccc1NC(=O)N(C)Cc1cnn(C)c1	-32.24%	7.046%	6.96%
O=C(NCc1ccc(OCC2CC2)nc1)Nc1c(F)cccc1F	3.295%	2.581%	13.08%
CNc1nc(CNC(=O)Nc2ccccc2OC(C)C)cs1	-10.52%	0.8401%	11.78%
Cc1c(C(=O)NCC(C)(C)S(C)(=O)=O)cccc1-c1ccccn1	-33.39%	-20.89%	-40.81%
Cn1ncc2c(NCCCOc3cccnc3)nc(C3CCCC3)nc21	-34.87%	17.36%	7.938%

Source: ChEMBL document CHEMBL3988442, “University of Dundee, Small-Polar-MMV Screening Library” (2021).